A short description of the assay: qHTS Assay to Find Inhibitors of Chronic Active B-Cell Receptor Signaling. The settings on record: ABC-DLBCL IkBa-CBG/CBR reporter, luminescence ratio (green luciferase fused to IkBa over red control in TMD8 lymphoma cells), 4 h. The procedure, abridged: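 TMD8 ABC-DLBCL cells carrying doxycycline-inducible green luciferase fused to IkappaBalpha plus unfused red luciferase were exposed to compounds (up to 46 uM) for 4 hrs at 37C. Activity came from the overlap-corrected green/red luminescence ratio.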
Background: In qHTS, concentration-response curves come from the screen itself.

Where [1] appears, read: measured here: CBR red luminescence, cell number.
Where [2] appears, read: measured here: IkBa-CBG green luminescence.

Consider 64 molecules from PubChem BioAssay AID493014 (National Center for Advancing Translational Sciences (NCATS), 2011).

Molecules are shown by their SMILES. This is one part of the list. Further columns of the screen follow, without active or inactive calls. The list favours compounds with an active or inconclusive main result. Potencies come from curve fits of mixed quality, noted in brackets.

Regarding `Cc1ccc(-c2nn(-c3ccccc3)cc2C(=O)NCC(c2cccs2)N2CCOCC2)cc1` (stereo unspecified), the AC50 under setting [1] was 18.4 µM [rising, single point]. The same measure, in the same setting: with `N#CCSc1nc2cc(C(=O)N3CCC(C(N)=O)CC3)ccc2c2nc3ccccc3n12` the figure was 5.01 µM [falling, partial curve]. Take `COC(=O)C1CCN(Cc2nnc(-c3ccccc3)o2)CC1`: the concentration at half-maximal activity (AC50) under setting [1] was 10 µM [rising, partial curve, poor fit].

For the molecule `Cn1c(=O)c2[nH]c(Nc3ccccc3)nc2n(C)c1=O`, under setting [1], the concentration at half-maximal activity (AC50) is 1.03 µM [falling, full curve]. Still for that read-out and setting: with `COc1ccc(CNC(C)C23CC4CC(CC(C4)C2)C3)c(OC)c1OC` (stereo unspecified) the figure was 35.5 µM [falling, single point]; with `O/N=C(/c1ccc(Cl)cc1)C1CC1c1ccccc1` (stereo unspecified), 0.447 µM [rising, full curve, poor fit]. Still for that read-out and setting: with `N#CCCn1c(SCC(=O)Nc2ccc(N3CCOCC3)cc2)nc2ccccc21` the figure was 4.11 µM [rising, full curve, poor fit]. For `COc1cc(C2C(C(=O)Nc3ccc(F)cc3)=C(C)Nc3nc(CCCO)nn32)cc(OC)c1OC` (stereo unspecified), the half-maximal activity concentration (AC50) under setting [1] was 5.17 µM [falling, single point].

Take `COc1ccc(NC(=O)CN(C)C(=O)c2cc3c(s2)CCC(C)C3)cc1` (stereo unspecified): under setting [1], the AC50 was 14.1 µM [falling, partial curve, poor fit]. For `CC1(C)Cc2c(sc3ncnc(NNC(=S)NCc4ccccc4)c23)CO1`, the AC50 under setting [2] was 23.1 µM [falling, partial curve, poor fit]. On to `CCCn1c(=NC(=O)c2c(-c3c(F)cccc3Cl)noc2C)c(C(=O)OCC)cc2c(=O)n3ccccc3nc21`, for which the AC50 under setting [1] is 1.64 µM [rising, full curve].

As to `CCCNC(=O)c1c(N)n(-c2cc(OC)cc(OC)c2)c2nc3ccccc3nc12`, the AC50 under setting [1] is 5.62 µM [falling, full curve]. As to `O=c1[nH]c(C2CCN(S(=O)(=O)c3cccc(C(F)(F)F)c3)CC2)nc2c1nnn2Cc1cccc(F)c1`, the AC50 under setting [1] is 17.8 µM [falling, single point]. On the same count and under the same terms, the same measure for `NC(=NCCc1c[nH]c2ccccc12)NS(=O)(=O)c1ccc2ccccc2c1`: 20.6 µM [falling, partial curve]; for `CC(=O)N/N=C\c1cccc(OC/C=C/c2ccccc2)c1`: 10 µM [falling, partial curve]. Regarding `CC1CC(C)CN(C(=O)COc2ccc([N+](=O)[O-])cc2Cl)C1` (stereo unspecified), the AC50 under setting [1] is 35.5 µM [rising, single point]. With `Cc1[nH]n(-c2ccccc2)c(=O)c1N=Nc1ccc(C(=O)O)cc1`, under setting [1], the AC50 is 0.398 µM [falling, full curve]. On the same count and under the same terms, with `CSCCC(NS(=O)(=O)c1ccc(C)cc1)C(=O)NCC(C)(C)N1CCOCC1` (stereo unspecified) the figure was 29.1 µM [rising, partial curve, poor fit]. Regarding `COc1ccc(S(=O)(=O)N2CCOC2CNC(=O)C(=O)NCc2cccnc2)cc1C` (stereo unspecified), the AC50 under setting [1] was 7.08 µM [rising, partial curve, poor fit]. Still for that read-out and setting: the same measure for `CCOC(=O)C1CCN(S(=O)(=O)c2cn(C)c(=O)n(C)c2=O)CC1`: 13 µM [rising, partial curve, poor fit]. In the case of `CCOC(=O)N1CCN(C(=O)COc2ccc(S(=O)(=O)NC(C)C)cc2)CC1`, the AC50 under setting [1] is 6.51 µM [rising, partial curve, poor fit].

`COc1ccccc1C(=O)NNC(=S)NC(=O)c1sc2ccccc2c1Cl`: the half-maximal activity concentration (AC50) under setting [1] was 0.411 µM [falling, full curve].

As to `Brc1ccc(-c2nnc(-c3ccccc3)c(N3CCSCC3)n2)cc1`, the AC50 under setting [1] was 1.58 µM [falling, full curve].

Consider `CC1Cc2ccccc2N1S(=O)(=O)c1cccc(C(=O)OCC(=O)N2CCOCC2)c1` (stereo unspecified), for which the concentration at half-maximal activity (AC50) under setting [1] was 16.4 µM [rising, partial curve, poor fit]. As to `CCCCOc1ccc(C(=O)NCC(=O)N2CC(C)OC(C)C2)cc1` (stereo unspecified), the AC50 reads like this: under setting [1], 29.1 µM [rising, single point]; under setting [2], 4.61 µM [falling, partial curve, poor fit]. For the molecule `COc1ccccc1/C=N/NC(=O)C(NC(=O)c1ccccc1)=C(C)C`, under setting [1], the AC50 is 5.8 µM [falling, partial curve].

Take `Cc1cc(OCC(=O)N(C)c2c(N)n(Cc3ccccc3)c(=O)[nH]c2=O)c(C(C)C)cc1Cl`: the AC50 under setting [1] was 7.31 µM [rising, partial curve, poor fit]. Same read-out and setting: the same measure for `COc1ccc(NC2CC(=O)N(c3ccccc3)C2=O)cc1` (stereo unspecified): 0.116 µM [rising, full curve]; for `CCOC(=O)CSc1nnc(SCCN2C(=O)c3ccccc3C2=O)s1`: 29.1 µM [falling, single point]; for `O=C(Nc1ccccc1)O/N=C/c1ccc(F)cc1`: 2 µM [falling, full curve]. With `O=C(Cn1ccc([N+](=O)[O-])n1)Nc1nc2ccccc2s1`, the concentration at half-maximal activity (AC50) under setting [1] was 12.6 µM [falling, partial curve]. Still for that read-out and setting: with `CC1(C)CC(=O)C(C=Nc2ccccc2Sc2ccccc2)=C(O)C1` the figure was 25.9 µM [rising, partial curve, poor fit]; with `COc1ccc(C(=O)Nc2nc(CC(=O)NCCc3cccc(OC)c3)cs2)cc1`, 20.6 µM [falling, partial curve, poor fit].

On to `COc1cc(/C=N/NC(=O)NC2CCCCC2)ccc1O`, for which the AC50 under setting [2] was 11.2 µM [falling, partial curve].

In the case of `COc1ccc(-n2c(SCC(=O)N3CCOCC3)nnc2C(C)N2CCCCC2)cc1` (stereo unspecified), the concentration at half-maximal activity (AC50) under setting [1] was 5.01 µM [rising, single point]. The same measure, in the same setting: the same measure for `COc1ccc(C(=O)Nc2ccc3oc(Cc4ccc(Cl)cc4)nc3c2)cc1OC`: 25.9 µM [falling, partial curve, poor fit]; for `O=C(/C=C\Nc1ccccn1)c1ccccc1`: 3.55 µM [falling, full curve]; for `CC(=O)N1CCC(Nc2ccc(C)cc2)CC1`: 14.6 µM [rising, single point]. Turning to `COC(=O)c1cn(C(=O)c2ccc(C)cc2)c2ccccc12`, the AC50 under setting [1] is 2.24 µM [rising, partial curve, poor fit].

Consider `C=CCn1c(Sc2ncc([N+](=O)[O-])s2)n[nH]c1=O`, for which, under setting [1], the concentration at half-maximal activity (AC50) was 20 µM [falling, single point]. On the same count and under the same terms, with `CCC(=O)NCCCCCCNC(=O)CC` the figure was 18.4 µM [rising, partial curve, poor fit]. Still for that read-out and setting: with `CN1C(=O)C2(OCC(COc3ccc(Cl)cc3)O2)c2ccccc21` (stereo unspecified) the figure was 0.82 µM [rising, full curve, poor fit]; with `COc1cccc(CC(=O)N2CCN(c3ccccc3[N+](=O)[O-])CC2)c1`, 11.2 µM [falling, partial curve, poor fit]. Still for that read-out and setting: with `CC(C)NS(=O)(=O)c1ccc(CCC(=O)Nc2cc(Cl)ccc2Oc2ccccc2)cc1` the figure was 29.1 µM [falling, single point]. As for `Nc1nonc1C(=O)N/N=C/c1ccc(-c2ccc(Cl)c(C(=O)O)c2)o1`, the AC50 under setting [1] was 31.6 µM [falling, single point]. Same read-out and setting: the same measure for `CC(C)c1ccccc1OCCNC(=S)NC(=O)c1cccnc1`: 35.5 µM [falling, single point]. Same read-out and setting: with `C=CCc1ccc(OCC(O)COCC)c(OC)c1` (stereo unspecified) the figure was 2.91 µM [rising, single point]; with `Cn1cc(-c2nnnn2-c2cccc(C(F)(F)F)c2)c(C(F)(F)F)n1`, 29.1 µM [falling, single point]; with `CCc1ccc2oc(C(=O)Nc3nonc3C)c(C)c2c1`, 12.6 µM [falling, single point]. Take `COc1ccnc(NCc2ccc(Cl)cc2)c1C#N`: the concentration at half-maximal activity (AC50) under setting [1] is 1.3 µM [rising, full curve, poor fit].

As to `Cc1ccc(NC(=O)c2cnn(-c3ccccc3)c2C)cc1`, the AC50 under setting [1] was 5.62 µM [rising, single point]. In the case of `COc1ccc(NC(=O)C2CCCN2S(=O)(=O)c2cccc3cccnc23)c(OC)c1` (stereo unspecified), the AC50 under setting [1] was 8.2 µM [rising, partial curve, poor fit].

In the case of `COc1cc2sc(C)nc2cc1C`, the AC50 under setting [1] is 0.0891 µM [rising, full curve, poor fit]. The same measure, in the same setting: the same measure for `Cc1cc(C(=O)NNC(=O)c2ccccc2O)c(C)o1`: 11.6 µM [falling, partial curve]; for `NC(=O)c1cccnc1Oc1ccc(Cl)cc1`: 0.178 µM [rising, full curve, poor fit]; for `O=C(CS)Nc1ccc2ccccc2c1`: 35.5 µM [falling, single point]. The same measure, in the same setting: with `Cc1[nH]nc2c1C1(CCN(C(=O)OCc3ccccc3)CC1)C(C#N)=C(N)O2` the figure was 3.66 µM [falling, partial curve]; with `CCS(=O)(=O)NCCc1cc2ccc(C)cc2[nH]c1=O`, 0.1 µM [rising, full curve, poor fit].

For the molecule `C[C@H](CO)N1C[C@H](C)[C@@H](CN(C)S(=O)(=O)c2cn(C)cn2)Oc2c(NC(=O)Nc3ccc4c(c3)OCO4)cccc2C1=O`, the half-maximal activity concentration (AC50) under setting [1] is 0.00517 µM [rising, full curve, poor fit]. Regarding `CC(=O)c1sc(NC(=O)COc2ccc(C)c(C)c2)nc1C`, under setting [1], the AC50 is 7.31 µM [falling, partial curve]. Still for that read-out and setting: with `Cc1[nH]nc2c1C(c1cccc(O)c1)C1=C(CC(C)(C)CC1=O)N2` (stereo unspecified) the figure was 35.5 µM [falling, single point]; with `CN(c1ccccc1)c1nc(N)c([N+](=O)[O-])c(Nc2ccccc2F)n1`, 12.6 µM [rising, single point].

For the molecule `O=C(CSc1nc2scc(-c3ccccc3)c2c(=O)[nH]1)NC1CCCCC1`, the concentration at half-maximal activity (AC50) under setting [1] was 3.55 µM [falling, single point]. Take `S=C1SCN(Cc2ccco2)CN1Cc1ccco1`: the concentration at half-maximal activity (AC50) is 35.5 µM [falling, single point] under setting [1] and 22.4 µM [falling, single point] under setting [2].

In general, AC50 refers to the midpoint of the concentration-response curve, whichever way the signal moves.
